## Screening data, single-dose tests

T. brucei: 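Whole-parasite assay of Trypanosoma brucei over 72 hours; the read-out is not stated. Concentration: 30 µM. The record gives no direction; compounds that gave an IC50 in retests scored well above the rest, so higher reads as stronger inhibition. Values scatter widely below zero; nearly all retest evidence comes from the higher of the two concentrations used. Size under these conditions: about 64,000 compounds, about 940 of them at 50% or above in at least one test.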
Leishmania in macrophages: 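Cell assay of Leishmania donovani living inside macrophages; the read-out is not stated. Tested at 30 µM. The record gives no direction; compounds that gave an IC50 in retests scored well above the rest, so higher reads as stronger inhibition. Size under these conditions: about 69,000 compounds, about 1,000 of them at 50% or above in at least one test.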
Toxoplasma: 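Assay of Toxoplasma gondii numbers, read through their beta-galactosidase reporter with a colour substrate. Concentration: 10 µM. Higher reads as fewer parasites (inferred from which compounds were picked for retests). About 67,000 compounds were tested under these conditions; 0.38% (about 260) showed 50% or more at least once.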

Values are the deposited “Percent Effect”, in %. How 0% and 100% were set is not recorded. Most values in the screen are low, and negative values occur. Compounds were drawn at random from those tested, without regard to their results. A dash means the value is not listed here; it may have been measured.

SMILES	T. brucei	Leishmania in macrophages	Toxoplasma
O=S(=O)(N1CCOCC1)N1CCCC1Cn1cccn1 (centres undefined)	-45.26	9.542	13.08
Cc1nc2c(c(NC3CC3)n1)CCN(C(=O)C(C)(C)O)CC2	-	8.466	-4.895
Cc1nc(-c2ccco2)ccc1C(=O)NCCC(=O)N1CCCCC1	-3.967	22.05	8.259
COCCc1ncc(CN2C[C@@H](C(=O)O)[C@H](C(C)C)C2)cn1	-55.09	34.84	18.5
CCc1cccc(N2CCC(NC(=O)c3ccncc3)CC2)c1	-11.75	23.04	-8.886
O=C(O)C(F)(F)F.O=C(O)C(F)(F)F.c1ccc(O[C@H]2CO[C@@]3(CCN(Cc4ccc5c(c4)OCO5)C3)C2)nc1	-22.6	57	-0.1012
CCn1ncc(CN2CCCC(C(=O)c3ccc(Cl)cc3)C2)c1C (centres undefined)	-	-10.05	2.755
CC(C)COC(C)C(=O)NCc1ccccc1Cn1ccnc1 (centres undefined)	-3.764	32.18	8.591
Cc1nn(CCn2ccnc2-c2cc3n(n2)CCCNC3)c(C)c1Cl	24.64	27.54	-3.304
CC1CCCCN1C(=O)COCc1nc(-c2ccncc2)no1 (centres undefined)	-	55.9	15.76
Cn1ccc(C(=O)NCc2ccccc2CN2CCCC2)cc1=O	-	-20.94	-4.782
COCCN(C)C[C@@H]1CN(C(=O)c2ccc(O)c(C)c2)C[C@@H]1CO	5.887	-18.57	11.84
Cc1cc(CC(C)Nc2nc(-c3cccnc3)nc3c2CNC3)[nH]n1 (centres undefined)	-26.1	23.86	18.23
CCN(CC1CCCN(CCc2cccc(OC)c2)C1)C(=O)CO (centres undefined)	-4.903	9.224	-0.7491
O=C(COc1ccc(Br)cc1F)Nc1cn[nH]c1	-29.93	-5.826	-2.736
O=C(c1ccncc1)N1CCC2(CC1)CCN(C(=O)c1cccnc1)C2	-50.02	14.83	-28.8
[H][C@@]12CO[C@@H](CN3CCN(C)CC3)[C@]1([H])CCN(Cc1ccncc1)C2	-72.06	-3.02	25.77
COc1ccc(OC)c(CNC(=O)N2CCC(n3cncn3)CC2)c1	-16.24	-11.97	14.22
O=C(O)C(F)(F)F.O=C(O)C(F)(F)F.O=C(O)C(F)(F)F.[H][C@@]12CN(Cc3cccnc3)C[C@]1([H])[C@H](OC)CCN2Cc1c(C)noc1C	-36.33	20.05	3.132
CN1CCC(NC(=O)c2cc(F)cc(Cl)c2O)C1=O (centres undefined)	8.141	17.77	-3.99
[H][C@@]12CCN(C[C@@H]1CC)[C@@H](CNCc1ccc3c(c1)OCO3)C2	2.3	35.21	0.1287
CCc1nccn1C1CCCN(C(=O)c2ccn(C)c(=O)c2)C1 (centres undefined)	-25.55	25.2	6.131
CC(C)[C@H]1CN(CC2CCC2)C[C@@H]1NC(=O)c1ccc(=O)[nH]c1	-19.14	4.38	-0.5461
COCCO[C@H]1CCN(C(=O)c2ccsc2)[C@H]1Cc1cnn(C)c1	-90.63	31.07	1.57
COc1ccnc(N(C)Cc2ccccc2OC(F)(F)F)n1	-10.57	32.99	8.459
CCC[C@H]1CN(CCCO)C[C@@H]1NC(=O)Cn1cc(C)cn1	-6.66	3.713	9.96
COC1COC2(CCN(Cc3ccccc3F)CC2)C1.O=C(O)C(F)(F)F (centres undefined)	-9.129	13.33	-7.958
Cc1c(C2CCCN(C(=O)OC(C)(C)C)C2)n2c(nc1=O)CCC2 (centres undefined)	-0.6522	-23.35	-6.494
CCCN1CCC(CNC(=O)N2CCCC2c2c(C)n[nH]c2C)CC1 (centres undefined)	-9.974	-4.294	-17.98
CNC(=O)NC(=O)CCN1CCN(c2nccs2)CC1	-21.97	0.1835	-7.089
N#Cc1cccc(OCc2ccoc2C(=O)N2CCCCC2)c1	-	-43.63	7.345
OC[C@H]1CCN(Cc2ccc3ccccc3n2)C[C@@H]1O	-10.91	24.61	-8.546
CC(NCC1=Cc2cc(Cl)ccc2OC1)c1nnc2n1CCCC2 (centres undefined)	18.02	16.17	-1.669
Cc1ccc(NC(=O)CNC(C)CN2CCCCC2)c(F)c1 (centres undefined)	-4.54	4.661	-1.287
[H][C@@]12CCN(c3ccc(C)nn3)C[C@]1(C(=O)N(C)C)CCO2	0.3264	10.63	1.914
Cc1cc(C)nc(NCc2nnc3n2CCCCC3)n1	-7.21	22.85	-3.04
Cc1cc(CN2CCC3(CC2)COC(COCC2CC2)C3)no1.O=C(O)C(F)(F)F (centres undefined)	4.372	28.33	-35.26

Source: ChEMBL document CHEMBL3988442, “University of Dundee, Small-Polar-MMV Screening Library” (2021).